In article PMC11651612:
These are yes or no findings as the source states them, for the method shown. In cells and extracts the contact can be indirect. Here binding means that the protein was enriched with, or labelled near, the bait; the list need not be complete.

T1: Cdc3-mCherry (C. neoformans) (UniProt J9VUF2)
T1 sequence: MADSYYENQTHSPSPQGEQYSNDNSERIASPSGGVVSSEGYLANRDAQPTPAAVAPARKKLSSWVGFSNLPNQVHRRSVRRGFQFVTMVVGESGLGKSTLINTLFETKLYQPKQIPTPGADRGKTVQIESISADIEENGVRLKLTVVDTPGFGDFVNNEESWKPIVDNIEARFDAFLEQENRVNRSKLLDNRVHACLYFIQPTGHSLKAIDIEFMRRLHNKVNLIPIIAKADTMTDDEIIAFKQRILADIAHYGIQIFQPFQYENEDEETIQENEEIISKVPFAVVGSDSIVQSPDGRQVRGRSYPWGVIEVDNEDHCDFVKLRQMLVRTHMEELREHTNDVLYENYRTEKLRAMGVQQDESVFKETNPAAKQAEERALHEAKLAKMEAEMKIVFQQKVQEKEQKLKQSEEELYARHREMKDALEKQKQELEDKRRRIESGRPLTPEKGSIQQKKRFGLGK

B1: Cytoplasmic protein (CNAG_06689) (protein, UniProt J9VRG3 1-367)
chain: MGILEKIDDIEKEMARTQKNKATEYHLGLLKAKLAKYRAQLLEPEKKSAKGEGFDVLKSGDARVCMIGFPSVGKSTLLSKTTKTESIVGAYEFTTLTAIPGVLEYEGARIQLLDLPGIVQDAAKGRGRGRQVVSVAKTADLILLMIDATKSAEQKRLLEIELEAVGIRLNTRPPDVVFKQKQAGGITLNCTVKLTKTDERTIRSILQTYKIHNCDVMIREDITTDEFIDVLLGTRKYIPSLTVINKIDGVSMETLDSMAREGDGRTIMISCEIDLGIDWLLEAIWKELGLVKVYTKRRGEQPDLNDPICLRQGATIETVCHGIHRSLASHFKYALVWGKSSKFNPQPQKVGLNHLVQDEDVVSIFTK
B2: Vacuolar protein (CNAG_03162) (protein, UniProt J9VQ88 1-283)
chain: MSSPPRYTEEPNLRPAPSKAYDTTPADTAATQPLLAAHASTNAQRAAEEGWRDDEDNVSDNYKLGVSVSDCDTEIRMLFIRKVYSILLIQLLATAGVSILLSLPSAKDFTHTNPWIMWIPLIGSFTSLFFVYWKRHHHPANLILLGLFTLFEATMIGLAVSYYESRIVIQALFITLGVFIGLTLFTFQTKYDFSSLAPILFIGIWGLLTTYLIQIFLPFNATVDLGIACFSTLLFSGFVLYDTQQIMKRLSVDEAIAGALTLYLDFLNLFLSILRALNSSNDR
B3: Tetraspanin Tsp2 (protein, UniProt J9VTI8 1-533)
chain: MPSDNPRRSRLANLASKIAPHSDPQRRSSRSGSLLSPLDPNSSQSGSKENYYGRPSSPTYSDQLSSNNHGQPQEVSYRIDDDLVPPVAPFVPHADSALSSRRSSISFLADKDSFKNRASSLSLNYVPAKFTRLHAPGDYAHRRKQGGGRDAFASNAQRMGQVGTVDDDEGVIFQVSGSGLEKKKPKLRWNRFKWVLFLANSVLFVYGMATLVCAILVWLNIFYQSDVIRVGNRTELIISTVAASMILFTSLLGFAGIFLNNRTFLAVFTLLLWIDFGLLIAPGYITYKQKTFNLEGKINSQWSRDLGTEGRLRIQDALRCCGYYSPFVEATVSPLCYSRSNFPGCKSQYLHLERRVLGIWFTVSFAIVPAHLLIILAALLCSNHVTYRFGKGLMPERYRLDLGSMAVIMDEYAGQIAAQYGPTVAQEAMERSSINLATPTPCRSEYDVSLLSVPNSRRGSSSNLEAMRRSALPGSTRGVSLYDPSNPRASMDRRPESSFGGRSHSASGNGSYSGGHQANESVASFSNDDHRRP
B4: PH domain-containing protein (CNAG_03727) (protein, UniProt J9VGF7 1-1282)
chain: MPLFFQRSRRASEAPPVLHPPDSKAHKRFSIDATSNAHNNPPFSTMNGTKLKNLLGAGPGSGDQSGTQKKERMKKKLTTPSMFFRRNSSSSPESPKPSPGSATVPITPGNEPIMADYQDPVQRISTKPVNAGLFPSAAVSPENSVLSHTVSPETSTPLSQGSVTPNARARPLSQTWQPSYPLVLPDEGYADVLPNGQLPLTTGPDIVSAAGDENAQRRSTDAHVLDSQLITKPQEMVVVPPETHLPTPPLSSRVSPEIGLQNEVETNQRRPSLALITSDEVLTPKALRPVSHEQENIKAPLAAADNQMVSENVVHPPEIHNQDILAIAPSPITHHTASSIPSISATPAMPSTPISSSSSPVRMSRPGLPVRKTTVIHSPPMPQPIRNLPTLTNLASLAGDTSSTTPTATPGWGELAKEGGPKTPGGGIMRSPISMMNGARTPGLGSFTLNLPQGKAKKTPMTEQELRKARRAMPVMLRQPSTVPSNEDDEGGDAGDDDDEEEESEDGAVSDGDSDNDSEAETARNPSTVSSSPVGFSGRLARKTRAGSSSQVGEMAKSAVTEEGDVSGSRALNASTDARRQSDFSRFNGMSNVSGPTIIPKANGKSVWSLSTPCEKDQSTSWAQFNNEGTPVRDVVPPVIVDTGNAQPTAGAAAAIARATLERGQLSYPSTLTTTSRGSSGYFDSQPSSSGPSAMPSPLPRLDKGKGKDLTVAVDSGSGLAAPVAAPRVEGEEERSVLEEESEIEEDVRREELGASSEDTNEVSTEGGTPSVEANDIAASTLPPSSQQVPQRPSLYTQTSISMINLPPKPQDSEDSTANRMVVKPKLETVKSGEQMPFRISLPPQQEPTGPGGILSPAEWAKPPPTPATGLNSFNFLVAGKDKPKELKRRRSAGDLVVPPPKYEPPFPGTFIPKPRDEEGREKLPKYWCSVHIEGMLQRKMEFIGEKDLGTGPDGKKKVEKIQARDRSWKRYYFILHGTALLVYKFDPHRFPLKTDAPVPTIDDEDADEFLHVHPSPERRRRASSSSVIGPGNKRGSVSVDPGRRGSVDTTNSMTWRGSGDSTSPISIPIPGRRTSESNNSLGSGSYRRSSLSIVHNAENGDDVKNAALFNSQRRASTSGTNAAFPSSSYGSTNTPLSSHFQHNALVKQYSLNKTESGLAADYHKRKNVVRVRADGEQFLLQTDSARDMVDWVEAFQAATNVAKDLDERPMPKIITLPRRRRRRNPAQQAATAAASNPVNAVASGTINPREATMVQQALVAADEAERERERMLREDQEAAVT
B5: Exocyst protein (protein, UniProt J9VN33 1-1194)
chain: MSSVPRTSSQDDVRSHITASLCAQRAPDGTPEETLIAFLKVYEEDSAGGTKSRYLILAVQRTGRVFIHKAKRNSNLSFSKGKTWYLEDVRVLEVMGPSDFALTMTTRRYHWTTERPKDQTAFLTSIVKVYKEYTHGRLPELINFVPPPIQSQPATQQQVPHTGLNEPPSAFPIPRVGNSDLTLPQPFGRSYRANSSSSVNSSQTYGSHYQPSHSESSRGRPSVDDDRSPPSATGTGAFARFPLSDTGRRPSGGDGRAAISPRAVAPGNGVGMGPPPAQRKMSDDRAEKIGLSALRNVSAASEYDSGTAGDASSRMKKSESDMSVIAETETERSVSAGAGGKATQSSRIPSAPVIREHSPSPPPPPPPPPQSTSNPQASEQKPKPAPPTITTTDLSVPSPGLNTSADFSSSPVSATRSSRRASFHPPPLDTTISRDVLLQSRTGLLPGAAGMTIDESEGDDGVLKNVEEMLEGFDWGMSAGGLGLNGEWRKKGADIIENRLLDELTALDSAIIHAFLESDDRTAQVLAHIDEALMELDDIDLQITGYRMQLNAVSDDISYIESQGKGLQVQTSNQQVLLNELRQLLQIVEVPADDLHTLIKEPPSSEQGVKALERAAASLYKALQAGMDTANAEVAATIARMQEYREQSSKFCKRMSDYLDITFQYQADSTLSDFRKNFKKTMALESHQKMGEKLMIYTGLVLYIKEMDDARYQKLCSDYMSRASQLHQSEMRELLTYMASLHLSSGDAGADADFSSAPGANYAKPSALQKSKTVIGLGLGNQPKQEKRTGNNISRAAELYRQAFTQIINQIVVEEDFINAFLRPVDTESTFADYMELDSYFRRQAARHASRARSAGMIQLLRSMMDLIFGFVEIELKNWVEATVEKGPVAIVGIIAVTERLAKEAEEENTSIFFTQLFDKQLLKQRLIMDMFINKQIKSIEASKTIIKRRKGITFFVKHFPVFVERVEQQMDGNGDLPIRVKVNEAYEKVMTSVYGSLEQLAKMERAETQANEDKGQLNYHVIMIENLHCFIEDVSQIKSMAMAGFLQRAKTRFEENMSMYIRLMLRRTFARFIDFFDGVDRLLQSTPANEISLHHSYSRSALKKILKDHGAKDMRKAVETMSRRVDKHFADDEEPNTSTANTALINMVWNELTQEFAKEILRAQGIVAKSYGDSGLGLEFSAADVEATCKKMK

Target: T1, Cdc3-mCherry (C. neoformans)
Test: affinity purification with mass spectrometry

Binder	binding
B1	binds
B2	binds
B3	binds
B4	binds
B5	binds
